Test results taken from patent US8952003B2, “Sterol derivative” (Kyowa Hakko Kirin Co., Ltd, priority 2009, dated 2015).
Some entries share one result that the patent states for a list of compounds. At least one compound was matched to its structure with a doubt left.

Test system: Rat adult neural stem cell line ANSC-7 cells
Assay: Proliferation promoting activity on neural stem cells (Test Example 1)
Assay type: cell-based
Details: relative value, negative control (DMSO) = 100%, wells without cells = 0%, absorbance at 490 nm
Experimental: Rat adult neural stem cell line ANSC-7 cells prepared by the method described in the following Reference Test Example 1 were suspended in assay medium at a density of 1.6×10^5 cells/mL; inoculated at 0.1 mL in a 96 well plate (manufactured by Costar) of which surface was coated with polyornithine and laminin; and cultured overnight at 37° C. under an atmosphere of 5% CO2. Thereafter, 50 μL of the culture supernatant was removed, and 50 μL of a test compound which was serially diluted with the assay medium to 2 times of the final concentration or DMSO (negative control) was added to each well. For the serial dilution of a test compound, non-specific adsorption was minimized by using ProteoSave 96 U plates (manufactured by SUMILON), siliconized 1.5 mL tubes (manufactured by Assist) and Pitarack siliconized tips (manufactured by Nacalai). After the culturing for 48 hours, 50 μL of the culture supernatant was replaced by 50 μL of the assay medium containing 0.1% bovine fetal serum. Furthermore, after the culturing for 48 hours, Living Cell Count Reagent SF (manufactured by Nacalai Tesque) was added at the volume of 10 μL per well to the medium. After the culturing for 3 hours at 37° C. in the incubator which was set at 5% CO2, the resulting solution was stirred for one minute and then the absorbance at 490 nm (control wavelength 655 nm) was measured by using Microplate Spectrophotometer Emax (manufactured by Molecular Devices). By regarding the measured value of well to which the cells were not inoculated as 0%, and the measured value of negative control as 100%, relative values in the test compound addition group were calculated.
After putting a 7-week-old Sprague Dawley Rat to sleep by ether anesthesia and subsequent decapitation, the skull was cut open from the parietal region to extract the brain. Under a microscope, tissues including circumventricular region were isolated from the extracted brain by using ophthalmic scissors and tweezers. The tissues including circumventricular region were cut into fragments of about 1 mm^3 using ophthalmic scissors and scalpels and then subjected to 30 minutes of digestion reaction at 37° C. in 5 mL of Hanks' buffer (HBSS buffer, manufactured by Invitrogen) containing 2.5 U/mL of papain, 250 U/mL of DNase (all manufactured by Worthington, Freehold, N.J.) and 1 U/mL of a neutral protease (Dispase, manufactured by Boehringer-Mannheim Corp.). The mixture of cells and tissues obtained by the reaction was washed three times with DMEM (manufactured by Invitrogen) containing 10% fetal bovine serum (manufactured by Hyclone) and then dissolved in the DMEM containing 10% fetal bovine serum, followed by removing the undigested materials using a nylon mesh of […].
The resulting crude cells extract was cultured overnight on a culture dish of 10 cm, in an incubator of 37° C. using DMEM/F12 medium (manufactured by Invitrogen) containing 10% fetal bovine serum. On the next day, the medium was replaced with DMEM/F12 containing 1% of N-2 additives (manufactured by Invitrogen) and 20 ng/mL of FGF 2 (manufactured by Pepro Tech) and the culturing was started. Once in 3 days, half of the medium was replaced with new DMEM/F12 containing 1% of N-2 additives and 20 ng/mL of FGF 2 and the culturing was continued.
When a small colony consisting of small cells was formed, it was treated with 1% trypsin for 30 seconds to 1 minute, and the cells detached were harvested. […]

SMILES	proliferation promoting activity (at 1.0 nmol/L)	proliferation promoting activity (at 10 nmol/L)
CC(C)CCC[C@@H](C)[C@H]1CC[C@H]2C3=C(CC[C@]12C)[C@@]1(C)CC[C@H](OC2O[C@H](CO)[C@@H](O)[C@H](O)[C@H]2O)C[C@@H]1C(=O)O3 (stereo partly drawn) [Compound 46, (3S,5S)-3-Glucopyranosiloxy-7-oxa-8-cholesten-6-one]	≥ 125%	
CNCCO[C@H]1CC[C@]2(C)C3=C(OC(=O)[C@H]2C1)[C@@H]1CC[C@H]([C@H](C)CCCC(C)C)[C@@]1(C)CC3 [Compound 36, (3S,5S)-3-(2-N-Methylamino)ethoxy-7-oxa-8-cholesten-6-one]		≥ 125%
CC(C)CCC[C@@H](C)[C@H]1CC[C@H]2C3=C(CC[C@]12C)[C@@]1(C)CC[C@@H](O)C[C@@H]1C(=O)O3 [Compound 105, (3R,55)-3-hydroxy-7-oxa-8-cholesten-6-one]	≥ 125%	
CC(C)CCC[C@@H](C)[C@H]1CC[C@H]2C3=C(CC[C@]12C)[C@@]1(C)CC[C@H](O)C[C@@H]1C(=O)O3 [Compound 2, (3S,55)-3-Hydroxy-7-oxa-8-cholesten-6-one]	≥ 125%	
CC(C)CCC[C@@H](C)[C@H]1CC[C@H]2C3=C(CC[C@]12C)[C@@]1(C)CC(=O)[C@H](O)C[C@@H]1C(=O)O3 [Compound 54, (3R,55)-3-Hydroxy-7-oxa-8-cholesten-2,6-dione]	≥ 125%	
